Assay results from PubChem BioAssay AID1487 (National Center for Advancing Translational Sciences (NCATS), 2009).
Several values for one entry are separate records, joined by “and”; a condition that tells them apart may be missing. Equal entries are not always repeated. The list shows a part of the results. These are further read-outs of the screen, such as a control signal, another cell line or another target. No call is given for them. The list favours compounds with an active or inconclusive main result. Words in brackets tell the shape of the fitted curve; partial curves, single points and poor fits give uncertain potencies.

Test: qHTS Assay for Modulators of Lamin A Splicing
Settings: HeLa LMNA splicing GFP/RFP minigene ratio, 48 h
How it was run: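 Read-out is the ratio of GFP to DsRed2 object intensity, acquired by 488 nm laser-scanning cytometry on HeLa lamin A-EGFP minigene reporter cells. Compound incubation 48 hrs at 37 °C in Opti-MEM with 2% FBS; DMSO 0.5% final.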

[1] = measured here: RFP viability control channel
[2] = measured here: GFP splicing reporter channel

SMILES: CNC(=S)NNc1nncc2ccccc12
- AC50 [1]: 20 µM [falling, single point]

SMILES: CC1CC(O)(Cc2ccccc2)C(C)CN1C (stereo not given)
- AC50 [2]: 3.55 µM [falling, full curve, poor fit]
- AC50 [1]: 4.47 µM [falling, single point]

SMILES: Cc1ccc(S(=O)(=O)N2CCN(CC(=O)Nc3ccc([N+](=O)[O-])cc3)CC2)cc1C
- AC50 [1]: 15.8 µM [rising, single point]

SMILES: CCOC(=O)c1c(C)[nH]c(C(=O)N/N=C/c2cccc(OC)c2)c1C
- AC50 [1]: 25.1 µM [rising, partial curve]

SMILES: C=CCn1c(SCc2c(C)noc2C)nc2sc3c(c2c1=O)CCCCC3
- AC50 [1]: 35.5 µM [rising, single point]

SMILES: O=C(c1ccccc1)C(CCC(CN1CCOCC1)C(=O)c1ccccc1)CN1CCOCC1 (stereo not given)
- AC50 [2]: 31.6 µM [rising, single point]

SMILES: CCCCOc1ccc(C(=O)N/C(=C/C=C/c2ccccc2)C(=O)NC)cc1
- AC50 [1]: 35.5 µM [rising, single point]

SMILES: CCn1c(-c2cc(Br)cc(OC)c2O)nc2cc(S(=O)(=O)N(C)C)ccc21
- AC50 [2]: 17.8 µM [rising, single point]
- AC50 [1]: 15.8 µM [rising, partial curve]

SMILES: Cc1ccc(S(=O)(=O)N2CCCCC2)cc1NC(=O)CCOc1ccccc1
- AC50 [1]: 31.6 µM [rising, single point]

SMILES: COc1ccc(CC(=O)N2N=C(C)CC2(O)c2cccnc2)cc1 (stereo not given)
- AC50 [2]: 3.16 µM [falling, full curve]
- AC50 [1]: 3.16 µM [falling, full curve]

SMILES: O=C(/C=C/c1ccc(F)cc1)Nc1nc2ccccc2[nH]1
- AC50 [2]: 0.355 µM [rising, partial curve]

SMILES: CC(=O)C1=C(c2ccc(C)cc2)N(C(C)=O)n2c(nnc2C2CCCCC2)S1
- AC50 [2]: 5.62 µM [falling, partial curve, poor fit]
- AC50 [1]: 2.82 µM [falling, partial curve]

SMILES: O=c1cc(-c2ccccc2)[nH]c2cc(Cl)ccc12
- AC50 [2]: 3.98 µM [rising, full curve]
- AC50 [1]: 2.82 µM [rising, full curve]

SMILES: CCOC(=O)c1c(NC(=O)CSc2nnc(-c3ccccc3)n2CC)sc(C(C)=O)c1C
- AC50 [2]: 10 µM [rising, single point]
- AC50 [1]: 14.1 µM [rising, single point]

SMILES: Cc1cccc(CS(=O)(=O)c2nnc([C@H](Cc3ccccc3)NC(=O)OC(C)(C)C)o2)c1
- AC50 [2]: 35.5 µM [falling, single point]
- AC50 [1]: 35.5 µM [falling, single point]

SMILES: CCOc1ccc(OCC)c(NC(=O)CN2CCN(c3cc(C)ccc3C)CC2)c1
- AC50 [2]: 3.16 µM [rising, full curve, poor fit]
- AC50 [1]: 8.91 µM [rising, partial curve]

SMILES: O=C(c1cccs1)N1CCC(c2nc3ccccc3s2)CC1
- AC50 [2]: 5.01 µM [rising, partial curve, poor fit]

SMILES: Cc1nn(C(C)(C)C)c(OC(=O)c2ccc3c(c2)OCO3)c1S(=O)(=O)c1ccccc1
- AC50 [2]: 35.5 µM [falling, single point]
- AC50 [1]: 35.5 µM [falling, single point]

SMILES: COc1ccc(OC)c(S(=O)(=O)NCC(c2ccc(N(C)C)cc2)N2CCOCC2)c1 (stereo not given)
- AC50 [1]: 0.0316 µM [rising, full curve, poor fit]

SMILES: Cc1ccccc1NC(=O)c1cc(S(=O)(=O)c2ccccc2)ccc1Cl
- AC50 [1]: 15.8 µM [rising, single point]

SMILES: O=C(Cn1cc(F)c(=O)[nH]c1=O)NCCO
- AC50 [1]: 12.6 µM [rising, single point]

SMILES: Cc1ccc(/C=N/NC(=O)c2cc(-c3cccnc3)nc3ccccc23)cc1
- AC50 [1]: 20 µM [rising, partial curve, poor fit]

SMILES: CCOC(=O)c1c(-c2cccc([N+](=O)[O-])c2)csc1NC(=O)C1CCCCC1
- AC50 [2]: 11.2 µM [rising, single point]
- AC50 [1]: 20 µM [rising, single point]

SMILES: CCc1cc2c(=O)n(CCC(C)C)c(=S)[nH]c2s1
- AC50 [1]: 31.6 µM [rising, single point]

SMILES: COc1cc(/C=C/C(=O)CC(=O)/C=C/c2ccc(O)c(OC)c2)ccc1O
- AC50 [2]: 35.5 µM [falling, single point]
- AC50 [1]: 1.78 µM [falling, partial curve, poor fit] and 35.5 µM [rising, partial curve]

SMILES: Cc1oc(-c2ccccc2F)nc1CS(=O)(=O)CC(=O)N1CCN(c2ccccc2)CC1
- AC50 [1]: 35.5 µM [rising, single point]

SMILES: CC(C)Nc1nc(-c2ccccc2)nnc1-c1ccccc1
- AC50 [2]: 12.6 µM [falling, partial curve, poor fit]
- AC50 [1]: 25.1 µM [falling, partial curve, poor fit]

SMILES: O=C(N[C@@H](Cc1ccccc1)c1nc2ccccc2[nH]1)c1cc([N+](=O)[O-])ccc1Cl
- AC50 [1]: 0.251 µM [rising, partial curve]

SMILES: Cc1ccc(NC(=O)c2cc(C(=O)c3cc(Cl)ccc3O)cn(-c3ccc(C)cc3)c2=O)cc1
- AC50 [2]: 12.6 µM [rising, partial curve]
- AC50 [1]: 12.6 µM [rising, partial curve]

SMILES: CC(CNC(=O)c1ccc2c(c1)nc1n2CCCCC1)c1ccccc1 (stereo not given)
- AC50 [2]: 0.282 µM [rising, full curve, poor fit]
- AC50 [1]: 20 µM [rising, partial curve]

SMILES: C=CCOC(=O)c1[nH]c2c(c1C)C(=O)CC(c1ccco1)C2 (stereo not given)
- AC50 [1]: 0.501 µM [rising, full curve]

SMILES: C/C(=N\S(=O)(=O)c1ccc(C)cc1)N1CCN(S(=O)(=O)c2ccccc2)C1
- AC50 [1]: 11.2 µM [rising, partial curve, poor fit]

SMILES: Cc1cc(N2C(=O)c3ccc(C(=O)NCc4ccccc4)cc3C2=O)no1
- AC50 [1]: 35.5 µM [rising, single point]

SMILES: Cc1ccc(C2C(=O)N(C3CCC(C)CC3)CC(=O)N2C2CCCC2)cc1 (stereo not given)
- AC50 [1]: 2.51 µM [rising, full curve, poor fit]

SMILES: CC1CCCCN1Cc1c(O)ccc2c(=O)c(-c3nc4ccccc4s3)c(N)oc12 (stereo not given)
- AC50 [1]: 12.6 µM [rising, partial curve]

SMILES: COc1ccccc1N1CCN(C(=O)COc2ccc(C)cc2Br)CC1
- AC50 [2]: 35.5 µM [rising, single point]
- AC50 [1]: 25.1 µM [rising, single point]

SMILES: CCn1c(SCC(=O)N/N=C/c2ccc(C)s2)nc2ccccc21
- AC50 [1]: 12.6 µM [rising, partial curve]

SMILES: Cc1cc2nc3c(=O)[nH]c(=O)nc-3n(CC(O)C(O)C(O)COP(=O)(O)O)c2cc1C (stereo not given)
- AC50 [2]: 22.4 µM [falling, single point]
- AC50 [1]: 20 µM [falling, partial curve]

SMILES: Cc1cc(S(=O)(=O)NC2CCCCC2)ccc1OCC(=O)NCC1CCCO1 (stereo not given)
- AC50 [1]: 0.112 µM [falling, full curve, poor fit]

SMILES: Cc1ccc(S(=O)(=O)CC2CSc3nc4ccccc4n32)cc1 (stereo not given)
- AC50 [2]: 0.794 µM [rising, full curve, poor fit]
- AC50 [1]: 1.26 µM [rising, full curve]

SMILES: CCNc1ccc(Br)cc(C(=O)/C=C/c2ccc(Cl)cc2)c1=O
- AC50 [1]: 35.5 µM [rising, single point]

SMILES: OCC1(Cc2ccccc2)CCN(C2CCN(c3ccccc3F)CC2)CC1
- AC50 [2]: 12.6 µM [falling, partial curve, poor fit]
- AC50 [1]: 8.91 µM [falling, full curve, poor fit]

SMILES: O=C(CCCc1nc2ccccc2s1)Nc1ccccc1
- AC50 [1]: 35.5 µM [falling, single point]

SMILES: COC(=O)c1[nH]c2cc(OC)ccc2c1NC(=O)CN1CCN(c2cccc(C)c2)C(C)C1 (stereo not given)
- AC50 [1]: 17.8 µM [falling, single point]

SMILES: CC1CCN(C(=O)CSc2nnc(-c3cc4ccccc4cc3O)n2Cc2ccco2)CC1
- AC50 [1]: 15.8 µM [rising, partial curve]

SMILES: Cn1nc(C(=O)Nc2ccc(S(=O)(=O)N3CCCCC3)cc2)c2ccccc2c1=O
- AC50 [2]: 0.00316 µM [rising, full curve, poor fit]

SMILES: COc1cc2c(cc1OC)-c1cc(N3CCCCCC3)nc(=O)n1CC2
- AC50 [1]: 14.1 µM [rising, single point]

SMILES: CC1(C)C(C=C(Cl)Cl)C1C(=O)N1CCN(Cc2ccccc2)CC1 (stereo not given)
- AC50 [2]: 2 µM [falling, partial curve, poor fit]
- AC50 [1]: 2 µM [falling, partial curve]

SMILES: COC(=O)c1cn(C)c2ccc(S(=O)(=O)N3CCCC3)cc2c1=O
- AC50 [2]: 1.12 µM [falling, full curve]
- AC50 [1]: 10 µM [falling, partial curve, poor fit]

SMILES: Cc1cccc(Nc2ncc3c(n2)CC(c2ccco2)CC3=O)c1 (stereo not given)
- AC50 [1]: 11.2 µM [rising, single point]

SMILES: Cc1cnc([N+](=O)[O-])n1CCOC(=O)NC(=O)c1ccc(C(F)(F)F)cc1
- AC50 [1]: 0.00891 µM [falling, full curve, poor fit]

SMILES: Cc1ccc(-n2nnnc2SCC(=O)Nc2nc(-c3ccc(F)cc3)cs2)cc1C
- AC50 [1]: 35.5 µM [falling, single point]

SMILES: CSc1nc(C)[nH]c(=O)c1C#N
- AC50 [2]: 0.794 µM [rising, full curve, poor fit]

SMILES: CC(C)(C)c1ccc(C(=O)NCCCN2CCN(CCCNC(=O)c3ccc(C(C)(C)C)cc3)CC2)cc1
- AC50 [2]: 35.5 µM [rising, single point]
- AC50 [1]: 35.5 µM [rising, single point]
